Data published in PubChem BioAssay AID624297 (National Center for Advancing Translational Sciences (NCATS), 2012).
Out of some 340,000 compounds screened, about 6,200 (1.8%) were called active. Inconclusive results, whose numbers are uncertain, are shown with a selection of clear calls. Calls come from the whole dose curve; as a rule, active = well fitted activation curve with a large enough effect; inconclusive = small, poorly fitted or top-dose-only effect; inactive = no such curve, though single readings can be large or run the other way. Where the call is inconclusive, the potency comes from a doubtful curve fit.

Assay: A quantitative high throughput screen for small molecules that induce DNA re-replication in SW480 colon adenocarcinoma cells. For re-replication activation: % of control where 0% means no effect. Note: nearly all actives have a fitted effect of over 55% in size.
Details: Hoechst DNA content imaging, 48 h; re-replication activation: at 46.1 µM (top of the series)
How it was run: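 Readout is total intensity of Hoechst-stained nuclei, excited at 405 nm and collected at 500-530 nm. Compound treatment lasted 48 hr at 37 C in 5% CO2 before staining.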
Potency is the fitted concentration of half-maximal effect.

SMILES | Potency | re-replication activation
CC(C)CNS(=O)(=O)c1ccc(S(=O)(=O)N2CCC3(CC2)OCCO3)cc1 | active: 0.184 µM | 
Cc1ccccc1CN1CCN(C(=O)c2cccc3ccccc23)CC1 | inactive | 
COc1ccc(C)cc1NC(=O)CN(C)S(=O)(=O)c1ccc2c(c1)CC(C)N2C(C)=O (stereo unspecified) | inconclusive: 29.1 µM [activator, single point] | 
NC(=O)Cn1c(=O)n(CCc2ccccc2)c(=O)c2c3c(sc21)CCCC3 | inconclusive: 32.6 µM [activator, single point] | 
CNc1oc(-c2ccc(OCc3ccccc3)cc2)nc1C#N | inconclusive: 0.0259 µM [activator, full curve, poor fit] | 
Cc1cccc(Oc2ccccc2NC(=O)CSCC(=O)Nc2cc(C)on2)c1 | inactive | 
Nc1ccc2nc(-c3ccc(Cl)cc3)[nH]c2c1 | inactive | 
CC(C)N(CCNC(=O)c1cn(C)c2ccc(S(=O)(=O)N(C)C)cc2c1=O)Cc1ccccc1 | inactive | 
O=C(/C=C/c1ccc(Br)cc1)NC(=S)NNC(=O)c1ccco1 | inconclusive: 31.6 µM [activator, single point] | 
COc1ccccc1N1CCN(S(=O)(=O)c2c(C)ccc3nsnc23)CC1 | inactive | 
CCOc1ccc(N(CC(=O)NCc2ccc(C)cc2)S(=O)(=O)c2c(C)[nH]c(=O)[nH]c2=O)cc1 | inconclusive: 0.0058 µM [activator, full curve, poor fit] | 
COc1ccccc1NCC(O)Cn1c2ccccc2c2ccccc21 (stereo unspecified) | inconclusive: 18.4 µM [activator, single point] | 
CC(C)n1cc(CN2CCCC(C(=O)Nc3cccc(-c4cc5ccccc5[nH]4)c3)C2)cn1 (stereo unspecified) | inconclusive: 9.2 µM [activator, partial curve] | 
CC(C)(C)C(=O)Nc1cc(S(=O)(=O)Nc2ccc(Cl)cc2)ccc1O | inactive | 
COC(=O)c1cc(S(=O)(=O)NCC2CCN(CCc3ccc(OC)cc3)CC2)cn1C | inconclusive: 29.1 µM [activator, single point] | 
COCC(C)NCc1cccc2ccccc12 (stereo unspecified) | inconclusive: 23.1 µM [activator, single point] | 
CSc1ncccc1C(=O)Nc1cc(C)ccn1 | inconclusive: 29.1 µM [activator, single point] | 
O=C1/C(=C\c2ccc(Cl)cc2)CCC1CNc1ccc(Cl)cc1 (stereo unspecified) | inconclusive: 18.4 µM [activator, single point] | 
Cc1ccn2c(=O)nc(SCC(=O)Nc3ccc4c(c3)OCO4)nc2c1 | inconclusive: 14.6 µM [activator, partial curve, poor fit] | 
O=C(c1ccco1)N1CCN(C(=O)C2CCCc3c2[nH]c2ccc(Cl)cc32)CC1 (stereo unspecified) | inconclusive: 29.1 µM [activator, single point] | 
COc1ccc(C(=O)c2cc3c(cc2[N+](=O)[O-])OCCO3)cc1 | inconclusive: 29.1 µM [activator, single point] | 
COc1cc(/C=C2\COC/C(=C\c3cc(OC)c(OC)c(OC)c3)C2=O)cc(OC)c1OC | inconclusive: 0.259 µM [activator, full curve, poor fit] | 

Three entries picked at random from the list so far, as already listed:
SMILES | Potency | re-replication activation
COc1ccc(C(=O)c2cc3c(cc2[N+](=O)[O-])OCCO3)cc1 | inconclusive: 29.1 µM [activator, single point] | 
CC(C)n1cc(CN2CCCC(C(=O)Nc3cccc(-c4cc5ccccc5[nH]4)c3)C2)cn1 (stereo unspecified) | inconclusive: 9.2 µM [activator, partial curve] | 
COc1ccccc1N1CCN(S(=O)(=O)c2c(C)ccc3nsnc23)CC1 | inactive | 

More records follow:

SMILES | Potency | re-replication activation
CC(C)Cc1ccc(CN2CCCC(NC(=O)CCn3cnnn3)C2)cc1 (stereo unspecified) | inactive | 
NC(=O)Cn1cc(/C=N\NS(=O)(=O)c2cccc([N+](=O)[O-])c2)c2ccccc21 | inconclusive: 18.4 µM [activator, single point] | 
O=C(NCc1ccco1)C1CCN(C(=O)c2ccc(Cl)cc2)CC1 | inactive | 
CC1(c2nnc(-c3ccc(F)cc3)o2)CC(c2cccc(Cl)c2)=NO1 (stereo unspecified) |  | inactive: 29.3% [at 9.22 µM]
C=CCn1c(=O)c2c(nc3n2CC(C)CN3Cc2ccccc2)n(C)c1=O (stereo unspecified) | inconclusive: 18.4 µM [activator, single point] | 
O=C(COc1ccccc1F)NNC(=O)c1ccc(F)c(S(=O)(=O)N2CCOCC2)c1 | inactive | 
CC(=O)[C@@H]1[C@@H](C(=O)c2ccc(C)cc2)[C@]2(C(=O)Nc3ccccc32)[C@H]2C=Cc3cc(F)ccc3N12 | inconclusive: 29.1 µM [activator, partial curve, poor fit] | 
Cc1cc(C)nc(NC(=NCCc2c[nH]c3ccccc23)NC(=O)C(C)(C)C)n1 | inconclusive: 1.46 µM [activator, full curve, poor fit] | 
CCOC(=O)CC(=O)CSc1nc2ccc(OC)cc2cc1C | inconclusive: 23.1 µM [activator, single point] | 
Cc1cc(C)c(S(=O)(=O)ON2C(=O)c3ccccc3C2=O)cc1C | inconclusive: 20.6 µM [activator, single point] | 
CC(C)=C1SC(N2CCN(c3ccc(Cl)cc3)CC2)=NC1=O | inactive | 
COc1ccc(-c2nnc(SCC(=O)NC3CCCc4ccccc43)n2N)cc1 (stereo unspecified) | inactive | 
COc1cc(C)cc2c1OC(c1ccccc1)CC2=O (stereo unspecified) | inconclusive: 29.1 µM [activator, single point] | 
COc1cccc(CNc2ncc(C(=O)Nc3cc(OC)c(OC)c(OC)c3)c(C)n2)c1 | inconclusive: 25.9 µM [activator, single point] | 
Cc1cccc(Nc2nc(-c3ccc(O)c(O)c3)cs2)n1 | inconclusive: 23.1 µM [activator, single point] | 
CC(C)c1ccc(NC(=O)[C@H](Cc2c[nH]c3ccccc23)NC(=O)[C@@H]2Cc3ccccc3CN2)cc1 | inconclusive: 5.17 µM [activator, partial curve, poor fit] | 
CCC1=NN2C(=N)/C(=C/c3ccc(OS(=O)(=O)c4ccccc4)cc3)C(=O)N=C2S1 | inconclusive: 29.1 µM [activator, single point] | 
CSc1ccc(CCCCCCOC(=O)C(C)(C)C)cc1 | inactive | 
O=C(NC1CCCCC1)C(c1ccc(F)cc1)N(Cc1ccccc1)C(=O)CN1C(=O)c2ccccc2S1(=O)=O (stereo unspecified) | inconclusive: 1.03 µM [activator, full curve, poor fit] | 
O=C(c1ccc(OC2CCN(Cc3ccccc3C(F)(F)F)CC2)cc1)N1CCCCC1 | inconclusive: 29.1 µM [activator, single point] | 
CC(C)n1c(O)c(N=NC(=O)CNC(=O)Cc2ccc(Cl)cc2)c2ccccc21 | inactive | 
CN(C)CCCNc1ccc(-c2nn(C)c(=O)c3ccccc23)cc1[N+](=O)[O-] | inconclusive: 16.4 µM [activator, partial curve, poor fit] | 

SMILES | Potency | re-replication activation
Cn1nccc1C(=O)Oc1cccc(/C=N/NC(=O)c2ccccc2O)c1 | inconclusive: 18.4 µM [activator, single point] | 
COc1ccccc1CNC(=O)COC(=O)Cc1c(Cl)cccc1Cl | inactive | 
CCCN(CCC)CCCNC(=S)Nc1ccc2nc(N3CCCC3)cc(C)c2c1 | inconclusive: 4.61 µM [activator, full curve] | 
COc1ccc(CCn2c(=N)c(C(=O)NC3CCCC3)cc3c(=O)n4cccc(C)c4nc32)cc1 | inconclusive: 3.66 µM [activator, full curve] | 
COc1cccc(N2CCN(S(=O)(=O)c3cc4c(cc3Cl)NC(=O)CO4)CC2)c1 | inactive | 
COc1ccc(N(C(=O)COc2ccccc2)C2C=CS(=O)(=O)C2)cc1 (stereo unspecified) | inconclusive: 20.6 µM [activator, single point] | 
Cc1ccc(C)c(N(CC(=O)NC2CCCC2)C(=O)c2oc(C(C)(C)C)cc2C)c1 | inactive | 
COc1ccc(CN(Cc2cc3cccc(C)c3n3nnnc23)C(=O)N2CCOCC2)cc1 |  | inconclusive: 70.5% [activator]
COc1ccc(NC(=O)c2cc3ccccc3[nH]2)cc1 | inconclusive: 20.6 µM [activator, partial curve, poor fit] | 
O=C(O)c1cc(Cl)ccc1-c1ccc(/C=C/c2cc(C(F)(F)F)[nH]c(=O)n2)o1 | inconclusive: 29.1 µM [activator, partial curve, poor fit] | 
CCn1c(=O)c(C(=O)CN2CCCc3ccccc32)c(N)n(Cc2ccccc2)c1=O | inconclusive: 23.1 µM [activator, partial curve, poor fit] | 
CCOCCCn1c(SCc2nc3ccccc3s2)nc2ccccc2c1=O | inconclusive: 2.91 µM [activator, full curve, poor fit] | 
Cc1cccc2c1-c1sc(C(=O)NCCCN3CCC(C)CC3)cc1CO2 | active: 29.1 µM | 
CC(C)(C)c1ccc(C(=O)NC(=S)NNC(=O)COc2ccccc2)cc1 | inactive | 
COc1ccc(S(=O)(=O)Nc2c(C)nn(C)c2C)cc1Br | inactive | 
FC(F)Oc1ccc(-c2csc(=Nc3cccnc3)n2CC2CCCO2)cc1 (stereo unspecified) | inactive | 
Cc1n[nH]c(=S)n1/N=C/c1ccccc1OCc1ccc(Cl)cc1Cl | inconclusive: 29.1 µM [activator, single point] | 
COc1ccc(C2=Nc3ccc(C)cc3C(c3ccccc3)N2CC(=O)NN)cc1 (stereo unspecified) | inactive | 
CCOC(=O)CSC1=C(C#N)C(c2ccc(OC)cc2)C2=C(CC(C)(C)CC2=O)N1 (stereo unspecified) | inconclusive: 29.1 µM [activator, single point] | 
CC(=O)N1C(=O)/C(=C2\SC(=S)N(c3c(C)n(C)n(-c4ccccc4)c3=O)C2=O)c2ccccc21 | inconclusive: 29.1 µM [activator, single point] | 
Cc1ccc2nc(C(F)(F)F)c(C#N)c(N)c2c1 | inconclusive: 2.31 µM [activator, full curve] | 
O=C(Nc1ccc(-c2nnc(-c3ccccc3)o2)cc1)C(F)(F)F | inconclusive: 6.51 µM [activator, single point] | 
